# Results taken from PubChem BioAssay (EPA / NIEHS).
# By UniProt entry, the sequences of proteins in these tests, tags left out. Where a name states a change or a piece, a line headed by the entry shows the natural chain unless it says otherwise.
# UniProt P10276, whole entry, looked up: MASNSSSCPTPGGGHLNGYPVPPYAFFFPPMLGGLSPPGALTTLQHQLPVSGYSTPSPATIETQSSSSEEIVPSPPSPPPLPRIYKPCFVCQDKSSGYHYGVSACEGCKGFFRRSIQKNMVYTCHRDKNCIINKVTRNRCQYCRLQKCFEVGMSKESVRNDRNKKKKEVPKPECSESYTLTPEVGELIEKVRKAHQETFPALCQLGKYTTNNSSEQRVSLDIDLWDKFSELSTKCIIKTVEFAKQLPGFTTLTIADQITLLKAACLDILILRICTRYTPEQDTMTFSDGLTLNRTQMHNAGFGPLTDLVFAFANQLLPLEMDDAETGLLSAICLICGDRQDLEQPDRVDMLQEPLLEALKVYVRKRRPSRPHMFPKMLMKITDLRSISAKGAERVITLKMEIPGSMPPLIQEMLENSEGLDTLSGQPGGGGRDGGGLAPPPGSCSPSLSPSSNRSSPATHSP
# UniProt P13631, whole entry, looked up: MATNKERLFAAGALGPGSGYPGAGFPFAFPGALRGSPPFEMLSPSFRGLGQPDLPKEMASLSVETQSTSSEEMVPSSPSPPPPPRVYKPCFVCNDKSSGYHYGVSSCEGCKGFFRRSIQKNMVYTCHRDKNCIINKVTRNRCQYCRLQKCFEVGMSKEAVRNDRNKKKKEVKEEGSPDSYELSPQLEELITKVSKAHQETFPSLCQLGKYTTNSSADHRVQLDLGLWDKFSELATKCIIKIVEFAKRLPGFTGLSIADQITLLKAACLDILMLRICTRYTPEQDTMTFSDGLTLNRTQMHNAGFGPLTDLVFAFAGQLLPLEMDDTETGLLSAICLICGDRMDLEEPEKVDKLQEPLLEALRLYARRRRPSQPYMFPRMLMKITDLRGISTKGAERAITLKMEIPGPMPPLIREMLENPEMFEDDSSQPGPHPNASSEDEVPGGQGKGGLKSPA
# UniProt Q92753: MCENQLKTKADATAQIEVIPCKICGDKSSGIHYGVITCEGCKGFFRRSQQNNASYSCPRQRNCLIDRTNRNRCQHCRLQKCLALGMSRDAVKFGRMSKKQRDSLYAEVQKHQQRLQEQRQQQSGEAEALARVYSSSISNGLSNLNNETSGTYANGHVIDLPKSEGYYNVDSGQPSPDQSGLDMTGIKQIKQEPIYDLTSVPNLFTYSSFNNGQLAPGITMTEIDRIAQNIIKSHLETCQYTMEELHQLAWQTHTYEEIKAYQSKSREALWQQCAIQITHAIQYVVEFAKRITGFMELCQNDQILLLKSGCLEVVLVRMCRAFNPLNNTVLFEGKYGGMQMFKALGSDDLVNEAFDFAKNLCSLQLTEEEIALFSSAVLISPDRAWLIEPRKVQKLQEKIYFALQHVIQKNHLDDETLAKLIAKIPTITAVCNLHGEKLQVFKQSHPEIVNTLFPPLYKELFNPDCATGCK
# UniProt P51449: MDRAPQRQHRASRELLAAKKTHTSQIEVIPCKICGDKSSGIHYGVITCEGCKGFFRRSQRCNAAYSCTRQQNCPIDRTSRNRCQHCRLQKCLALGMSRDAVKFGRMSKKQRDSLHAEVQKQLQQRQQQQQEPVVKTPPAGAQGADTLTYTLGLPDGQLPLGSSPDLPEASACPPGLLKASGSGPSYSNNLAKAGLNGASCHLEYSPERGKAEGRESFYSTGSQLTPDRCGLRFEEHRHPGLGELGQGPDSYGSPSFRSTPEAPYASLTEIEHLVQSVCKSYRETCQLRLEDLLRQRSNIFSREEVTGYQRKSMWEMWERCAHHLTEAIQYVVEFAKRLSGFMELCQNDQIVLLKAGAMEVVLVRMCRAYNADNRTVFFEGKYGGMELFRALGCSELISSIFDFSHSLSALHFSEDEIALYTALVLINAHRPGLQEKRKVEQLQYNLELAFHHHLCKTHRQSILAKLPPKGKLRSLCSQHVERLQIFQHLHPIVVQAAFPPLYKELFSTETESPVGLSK
# UniProt P19793: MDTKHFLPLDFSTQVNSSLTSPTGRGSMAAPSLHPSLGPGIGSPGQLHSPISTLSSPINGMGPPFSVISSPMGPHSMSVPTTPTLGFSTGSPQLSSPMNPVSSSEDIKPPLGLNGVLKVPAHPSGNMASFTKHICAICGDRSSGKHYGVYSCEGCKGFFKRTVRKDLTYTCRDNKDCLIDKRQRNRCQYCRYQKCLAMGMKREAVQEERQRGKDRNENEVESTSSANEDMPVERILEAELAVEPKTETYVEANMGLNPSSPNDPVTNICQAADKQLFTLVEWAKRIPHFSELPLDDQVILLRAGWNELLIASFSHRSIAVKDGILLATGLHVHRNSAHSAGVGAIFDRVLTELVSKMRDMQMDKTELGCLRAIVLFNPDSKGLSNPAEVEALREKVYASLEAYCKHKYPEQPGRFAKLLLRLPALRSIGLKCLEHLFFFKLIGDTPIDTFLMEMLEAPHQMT
# UniProt P28702: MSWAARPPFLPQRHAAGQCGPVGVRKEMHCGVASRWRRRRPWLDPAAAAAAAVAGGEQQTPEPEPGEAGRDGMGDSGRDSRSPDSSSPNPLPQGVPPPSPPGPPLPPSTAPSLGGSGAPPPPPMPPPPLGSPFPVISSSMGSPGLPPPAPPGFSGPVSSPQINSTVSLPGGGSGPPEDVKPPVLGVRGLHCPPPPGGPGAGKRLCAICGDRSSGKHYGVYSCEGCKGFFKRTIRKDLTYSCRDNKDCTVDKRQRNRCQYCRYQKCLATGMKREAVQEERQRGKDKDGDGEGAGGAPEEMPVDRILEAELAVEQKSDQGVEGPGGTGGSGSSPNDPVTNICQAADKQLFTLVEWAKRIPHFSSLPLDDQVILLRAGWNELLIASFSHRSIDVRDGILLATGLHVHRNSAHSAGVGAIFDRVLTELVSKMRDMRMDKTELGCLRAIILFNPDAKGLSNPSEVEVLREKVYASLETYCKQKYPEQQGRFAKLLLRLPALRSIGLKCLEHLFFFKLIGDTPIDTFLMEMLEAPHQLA
# UniProt P10827: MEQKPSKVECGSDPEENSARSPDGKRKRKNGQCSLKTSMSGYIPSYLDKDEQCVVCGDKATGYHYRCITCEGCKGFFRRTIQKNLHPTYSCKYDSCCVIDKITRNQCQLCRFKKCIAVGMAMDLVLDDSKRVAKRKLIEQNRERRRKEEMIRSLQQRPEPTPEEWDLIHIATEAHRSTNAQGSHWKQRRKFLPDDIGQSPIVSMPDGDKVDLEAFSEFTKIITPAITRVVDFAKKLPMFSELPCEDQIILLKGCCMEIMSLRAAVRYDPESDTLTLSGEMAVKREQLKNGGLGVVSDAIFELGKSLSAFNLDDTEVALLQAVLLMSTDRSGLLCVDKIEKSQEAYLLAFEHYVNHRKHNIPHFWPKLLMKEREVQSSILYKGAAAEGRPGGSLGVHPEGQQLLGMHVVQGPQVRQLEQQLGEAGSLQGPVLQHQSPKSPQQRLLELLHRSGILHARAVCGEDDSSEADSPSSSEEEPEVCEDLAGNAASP
# UniProt P11473: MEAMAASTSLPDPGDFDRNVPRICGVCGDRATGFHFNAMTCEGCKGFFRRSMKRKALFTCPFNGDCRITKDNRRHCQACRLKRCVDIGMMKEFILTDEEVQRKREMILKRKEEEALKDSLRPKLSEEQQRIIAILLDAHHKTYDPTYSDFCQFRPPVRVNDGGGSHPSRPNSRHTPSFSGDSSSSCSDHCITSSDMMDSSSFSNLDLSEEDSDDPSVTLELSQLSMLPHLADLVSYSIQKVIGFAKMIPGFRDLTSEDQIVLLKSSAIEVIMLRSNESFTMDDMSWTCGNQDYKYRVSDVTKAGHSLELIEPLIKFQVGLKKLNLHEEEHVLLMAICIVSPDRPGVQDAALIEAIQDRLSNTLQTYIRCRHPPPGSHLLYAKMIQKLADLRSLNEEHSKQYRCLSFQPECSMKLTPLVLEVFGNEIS
# UniProt P08684, whole entry, looked up: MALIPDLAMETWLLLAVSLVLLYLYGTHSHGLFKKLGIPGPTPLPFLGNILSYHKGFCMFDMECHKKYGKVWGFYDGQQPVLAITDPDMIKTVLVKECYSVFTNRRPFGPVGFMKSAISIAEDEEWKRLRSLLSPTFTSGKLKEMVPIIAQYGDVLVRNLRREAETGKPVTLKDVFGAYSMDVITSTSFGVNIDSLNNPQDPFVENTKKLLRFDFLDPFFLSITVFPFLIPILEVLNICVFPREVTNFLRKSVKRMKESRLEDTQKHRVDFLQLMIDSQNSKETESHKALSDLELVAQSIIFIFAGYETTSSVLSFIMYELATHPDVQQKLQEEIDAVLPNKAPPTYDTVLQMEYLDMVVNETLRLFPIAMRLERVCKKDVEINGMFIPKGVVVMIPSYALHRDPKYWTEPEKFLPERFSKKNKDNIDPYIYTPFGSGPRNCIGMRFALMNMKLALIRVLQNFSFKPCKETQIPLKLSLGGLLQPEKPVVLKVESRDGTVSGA
# “And” between values parts separate entries of the source, which are not always exact repeats. Equal values may be shown once. Inconclusive results, whose numbers are uncertain, are shown with a selection of clear calls. Potencies of inconclusive entries are doubtful fits and often do not repeat. More than one record can exist for a structure, and the calls need not agree. The source made the active and inactive calls. How the source made its calls: active means hit-call score of the fitted dose curve at least 0.9, where 1 is the maximum; inconclusive means response in the unintended direction; inactive means score below 0.9.
# Assays:
# [1] = biological target: Retinoic acid receptor alpha (Homo sapiens) (UniProt P10276); assay: ATG_RARa_TRANS: Attagene TRANS-FACTORIAL HepG2 Assay for human Retinoic Acid Receptor alpha (RARa) (AID 2283005);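 on AC50: potency for increased reporter signal meaning RARa activation over DMSO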
# Outline: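 Reporter transcripts, measured by RT-PCR with fluorescent labeling and capillary electrophoresis after 24 h dosing, reflect activity of an exogenous human RARa–GAL4 fusion in transiently transfected HepG2. Fitted for increase relative to DMSO.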
# [2] = biological target: human Retinoic Acid Receptor gamma (RARg), RARG (gene 5916) (UniProt P13631); assay: ATG_RARg_TRANS: Attagene TRANS-FACTORIAL HepG2 Assay for human Retinoic Acid Receptor gamma (RARg) (AID 2283009);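 on AC50: AC50 is for reporter induction above DMSO meaning RARg activation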
# Outline: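 HepG2, RARg-GAL4 TRANS system, 24 h exposure; reporter mRNA by RT-PCR + CE fluorescence; increase over DMSO.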
# [3] = biological target: human RAR-related Orphan Receptor beta (RORb), RORB (gene 6096) (UniProt Q92753); assay: ATG_RORb_TRANS: Attagene TRANS-FACTORIAL HepG2 Assay for human RAR-related Orphan Receptor beta (RORb) (AID 2283010);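 on AC50: potency for increased reporter mRNA meaning activation of RORb-Gal4 chimera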
# Outline: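 In this TRANS-format test, human HepG2 cells express chimeric NR-Gal4 fusion proteins driving GAL4-UAS reporters. After 24 h dosing, reporter transcripts are measured by fluorescent RT-PCR/capillary electrophoresis, with DMSO as negative control.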
# [4] = biological target: human RAR-related Orphan Receptor gamma (RORg), RORC (gene 6097) (UniProt P51449); assay: ATG_RORg_TRANS: Attagene TRANS-FACTORIAL HepG2 Assay for human RAR-related Orphan Receptor gamma (RORg) (AID 2283011);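 on AC50: potency for induction of reporter transcripts above DMSO so activators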
# Outline: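 HepG2 cells transiently transfected with GAL4-UAS reporter units and chimeric RORg-Gal4 construct; after 24 h chemical exposure, reporter mRNA measured by RT-PCR with fluorescent capillary electrophoresis, gain of signal fitted against DMSO.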
# [5] = biological target: Retinoic acid receptor RXR-alpha (Homo sapiens) (UniProt P19793); assay: ATG_RXRa_TRANS: Attagene TRANS-FACTORIAL HepG2 Assay for human Retinoid X Receptor alpha (RXRa) (AID 2283012)
# Outline: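 Cells (HepG2) carried transiently transfected GAL4-responsive reporter units. Following a 24 h chemical incubation, reporter mRNA induction was read via RT-PCR fragment analysis; DMSO served as negative control and baseline.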
# [6] = biological target: human Retinoid X Receptor beta (RXRb), RXRB (gene 6257) (UniProt P28702); assay: ATG_RXRb_TRANS: Attagene TRANS-FACTORIAL HepG2 Assay for human Retinoid X Receptor beta (RXRb) (AID 2283013)
# Outline: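 Multiplexed TRANS reporter assay in HepG2; 24 h dosing; reporter mRNA by RT-PCR/CE fluorescence; gain-of-signal relative to DMSO.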
# [7] = biological target: human Thyroid Receptor alpha (THRa1), THRA (gene 7067) (UniProt P10827); assay: ATG_THRa1_TRANS: Attagene TRANS-FACTORIAL HepG2 Assay for human Thyroid Receptor alpha (THRa1) (AID 2283014)
# Outline: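 HepG2 cells transiently transfected with chimeric NR-Gal4 and GAL4-UAS reporter units, dosed 24 h. Reporter mRNA quantified by RT-PCR, fluorescent labeling, HpaI digestion and capillary electrophoresis; gain-of-signal fit versus DMSO.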
# [8] = biological target: human Vitamin D Receptor (VDR), VDR (gene 7421) (UniProt P11473); assay: ATG_VDR_TRANS: Attagene TRANS-FACTORIAL HepG2 Assay for human Vitamin D Receptor (VDR) (AID 2283022)
# Outline: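 HepG2 cells were transiently transfected with GAL4-UAS reporter units and a chimeric VDR-Gal4 construct, then dosed for 24 hours. Reporter mRNA was quantified by RT-PCR, fluorescent labeling, HpaI digestion and capillary electrophoresis; gain of signal analysed vs DMSO.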
# [9] = biological target: Cytochrome P450 3A4 (Homo sapiens) (UniProt P08684); assay: NVS_ADME_hCYP3A4: NovaScreen (NVS) CYP450-related Enzyme Activity (ADME) Assay for human CYP3A4 (AID 2283110)
# Outline: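 Compounds were first screened in duplicate at 10 uM against recombinant CYP3A4 produced in insect cells, then actives were run in concentration series. Enzyme activity was measured by fluorescence after 0.33 hour, with acetonitrile as baseline.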
structure (smiles),measurement,setting,value
Cn1cc(-c2ccccc2)c(=O)c(-c2cccc(C(F)(F)F)c2)c1,AC50,[1],inconclusive: 19.8 µM
same,AC50,[2],inconclusive: 19.8 µM
same,AC50,[3],inconclusive: 0.00914 µM
same,outcome,[4],inactive
same,AC50,[5],inconclusive: 0.181 µM
same,AC50,[6],inconclusive: 5.31 µM
same,AC50,[7],inconclusive: 141 µM
CCCSP(=S)(OCC)Oc1ccc(SC)cc1 (stereo unspecified),AC50,[1],inconclusive: 100 µM
same,AC50,[2],inconclusive: 100 µM
same,AC50,[3],inconclusive: 100 µM
same,AC50,[4],inconclusive: 178 µM
same,AC50,[5],inconclusive: 100 µM
same,outcome,[6],inactive
same,AC50,[7],inconclusive: 100 µM
O=C(O)C(F)(F)C(F)(F)C(F)(F)C(F)(F)C(F)(F)C(F)(F)C(F)(F)C(F)(F)C(F)(F)F,outcome,[1],inactive
same,AC50,[2],active: 33.4 µM
same,outcome,[2],inactive
same,AC50,[4],inconclusive: 33.4 µM
same,outcome,[4],inactive
same,AC50,[5],inconclusive: 92 µM
same,AC50,[6],active: 18.1 µM and active: 13.4 µM and active: 13.2 µM
same,outcome,[7],inactive
Brc1ccc(Oc2c(Br)cc(Br)cc2Br)c(Br)c1,AC50,[1],inconclusive: 100 µM
same,AC50,[2],inconclusive: 3.22 µM
same,outcome,[3],inactive
same,outcome,[4],inactive
same,outcome,[5],inactive
same,outcome,[6],inactive
same,AC50,[7],inconclusive: 100 µM
same,AC50,[8],inconclusive: 100 µM
CNC(=O)Oc1cccc2ccccc12,outcome,[1],inactive
same,outcome,[2],inactive
same,outcome,[3],inactive
same,outcome,[4],inactive
O=C(O)C(Cl)(Cl)Cl,outcome,[1],inactive
same,AC50,[2],inconclusive: 100 µM
same,AC50,[3],inconclusive: 100 µM
same,outcome,[3],inactive
same,AC50,[4],inconclusive: 24 µM
same,AC50,[5],inconclusive: 24.2 µM
same,AC50,[6],inconclusive: 100 µM
O=C(Nc1ccccc1)Nc1cnns1,outcome,[1],inactive
same,AC50,[2],inconclusive: 50 µM
same,AC50,[3],inconclusive: 50 µM
N#Cc1nn(-c2c(Cl)cc(C(F)(F)F)cc2Cl)c(N)c1S(=O)C(F)(F)F (stereo unspecified),outcome,[1],inactive
same,AC50,[2],inconclusive: 100 µM
same,outcome,[2],inactive
same,AC50,[3],inconclusive: 6.98 µM and inconclusive: 100 µM
same,outcome,[4],inactive
same,AC50,[6],inconclusive: 100 µM
same,AC50,[7],active: 48.7 µM and inconclusive: 100 µM
CCOP(=O)(OCC)OC(=CCl)c1ccc(Cl)cc1Cl,AC50,[1],inconclusive: 19.8 µM
same,AC50,[2],inconclusive: 161 µM
same,AC50,[3],inconclusive: 23.5 µM
same,AC50,[4],inconclusive: 100 µM
same,AC50,[5],inconclusive: 174 µM
same,AC50,[7],inconclusive: 177 µM
same,AC50,[8],inconclusive: 100 µM
same,AC50,[9],inconclusive: 1.31 µM
CCOC(=O)C(SP(=S)(OC)OC)c1ccccc1 (stereo unspecified),AC50,[1],inconclusive: 51.1 µM
same,AC50,[2],inconclusive: 182 µM
same,AC50,[3],inconclusive: 0.0823 µM
same,outcome,[4],inactive
same,AC50,[5],inconclusive: 0.159 µM
same,AC50,[6],active: 32.2 µM
same,AC50,[7],inconclusive: 10.7 µM
C=C(C)C(=O)[O][Sn]([CH2]CCC)([CH2]CCC)[CH2]CCC,AC50,[1],inconclusive: 0.68 µM
same,AC50,[2],inconclusive: 1.24 µM
same,AC50,[3],inconclusive: 1.93 µM
same,AC50,[4],inconclusive: 1.24 µM
same,AC50,[5],active: 0.00348 µM
same,AC50,[6],active: 0.0323 µM

# Part of the list above, with bars between the fields.
structure (smiles) | measurement | setting | value
Cn1cc(-c2ccccc2)c(=O)c(-c2cccc(C(F)(F)F)c2)c1 | AC50 | [6] | inconclusive: 5.31 µM
CCCSP(=S)(OCC)Oc1ccc(SC)cc1 (stereo unspecified) | AC50 | [3] | inconclusive: 100 µM
same | AC50 | [5] | inconclusive: 100 µM
O=C(O)C(F)(F)C(F)(F)C(F)(F)C(F)(F)C(F)(F)C(F)(F)C(F)(F)C(F)(F)C(F)(F)F | outcome | [1] | inactive
same | outcome | [2] | inactive
same | AC50 | [5] | inconclusive: 92 µM
Brc1ccc(Oc2c(Br)cc(Br)cc2Br)c(Br)c1 | AC50 | [8] | inconclusive: 100 µM
O=C(O)C(Cl)(Cl)Cl | AC50 | [6] | inconclusive: 100 µM
N#Cc1nn(-c2c(Cl)cc(C(F)(F)F)cc2Cl)c(N)c1S(=O)C(F)(F)F (stereo unspecified) | AC50 | [7] | active: 48.7 µM and inconclusive: 100 µM
CCOC(=O)C(SP(=S)(OC)OC)c1ccccc1 (stereo unspecified) | AC50 | [2] | inconclusive: 182 µM
same | AC50 | [7] | inconclusive: 10.7 µM
C=C(C)C(=O)[O][Sn]([CH2]CCC)([CH2]CCC)[CH2]CCC | AC50 | [1] | inconclusive: 0.68 µM
same | AC50 | [5] | active: 0.00348 µM
